Source: PubChem BioAssay AID686938 (Drosophila RNAi Screening Center, 2013)
Purpose: 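Looking for CRAC channel components and the factors controlling them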 (primary screen). System: Drosophila S2R+ cells. Knock-down reagent: long dsRNA against Drosophila genes, about 0.25 µg dsRNA per well, roughly 10,000 cells. Time to read-out: 5 days of knock-down before the calcium assay. Challenge: thapsigargin (SERCA pump blocker) to empty calcium stores; entry signal taken 4 min after adding it. Read-out: 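Per-well fluo-4 fluorescence in two replicates, unnormalised, measured in resting cells and 4 min after store depletion by the SERCA blocker thapsigargin; ratio of the two present in few wells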. Reading the numbers: calcium entry signal: higher = stronger calcium signal after store depletion; entry to resting ratio: higher = more calcium entry relative to resting level; resting calcium signal: higher = higher resting calcium signal. Call rule: 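Hit if the duplicate-averaged plate z-score for entry over resting signal is under −3; wells with weak total dye signal (Fmax z < −2) or more than 5 off-targets removed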. Calls: active = strongly reduced calcium entry; inactive = no strong reduction.
In all, the deposit lists about 23,000 reagents; shown is an unselected part of those with a known target gene and a result. In the full data, 75 (0.33%) are marked active. 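Raw plate signals without normalisation; calls rest on plate z-scores that were not deposited; ratio present for only 364 wells.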 A number with no mark means an inactive call. The record does not give: the dose of the treatment.

no.	target	DRSC id	calcium entry signal, replicate 1 (fluorescence units)	calcium entry signal, replicate 2 (fluorescence units)	entry to resting ratio	resting calcium signal, replicate 1 (fluorescence units)	resting calcium signal, replicate 2 (fluorescence units)
1	CG14641	DRSC12227	3.38e7	4.15e7		1.44e7	2.57e7
2	Scsalpha2	DRSC16003	3.44e7	2.69e7		1.71e7	1.32e7
3	CG12728	DRSC17883	3.18e7	3.51e7		1.53e7	1.58e7
4	Atg10	DRSC06172	2.35e7	2.68e7		1.09e7	1.19e7
5	CkIIalpha-i1	DRSC11115	5.18e7	7.21e7		2.35e7	2.95e7
6	PPP1R15	DRSC04422	2.98e7			1.32e7	
7	PGAP3	DRSC04989	3.87e7			1.95e7	
8	NimB5	DRSC01885	4.93e7	3.30e7		2.17e7	1.58e7
9	Smyd5	DRSC15483	3.97e7	4.12e7		4.80e7	1.81e7
10	lncRNA:CR43498	DRSC17621	4.11e7	3.39e7		1.81e7	1.37e7
11	Cby	DRSC14591	3.61e7	3.95e7		5.39e7	1.74e7
12	kay	DRSC13962	3.72e7	3.82e7		1.82e7	2.04e7
13	kay	DRSC15048	3.68e7	4.71e7		1.91e7	2.16e7
14	kay	DRSC16977	4.33e7	4.66e7		2.43e7	2.73e7
15	Cyp303a1	DRSC03300	5.05e7	3.52e7		2.28e7	1.78e7
16	CG7203	DRSC03026	2.63e7	3.22e7		1.11e7	1.49e7
17	CG10492	DRSC02064	3.32e7			2.20e7	
18	UGP	DRSC10411	5.50e7	4.30e7		3.71e7	1.93e7
19	CG32987	DRSC22373	3.81e7	7.18e7		1.73e7	2.67e7
20	Epg5	DRSC14778	3.84e7	3.57e7		6.67e7	1.50e7
21	CG12620	DRSC02177	4.20e7	2.42e7		1.89e7	1.12e7
22	CG4793	DRSC01966	4.49e7	3.64e7		1.95e7	1.65e7
23	CG11666	DRSC22379	3.62e7	4.11e7		1.64e7	2.27e7
24	CG6527	DRSC10659	1.79e7	2.05e7		9.34e6	1.07e7
25	CG33500	DRSC09115	3.34e7	3.28e7		1.82e7	1.80e7
26	CG17572	DRSC02629	4.30e7	4.52e7		2.03e7	1.94e7
27	Lamtor5	DRSC18491	3.37e7	5.09e7	1.8	1.83e7	2.10e7
28	CG3285	DRSC00589	4.44e7			2.21e7	
29	CG8774	DRSC16445	3.98e7	5.32e7		1.62e7	2.15e7
30	Best1	DRSC16909	3.69e7	2.86e7		1.77e7	1.52e7
31	Lcp3	DRSC07457	5.06e7	4.08e7		2.29e7	1.91e7
32	fry	DRSC08993	4.56e7	4.64e7		2.38e7	2.04e7
33	fry	DRSC10172	3.16e7	3.82e7		1.54e7	1.71e7
34	fry	DRSC10709	2.78e7	3.54e7		1.47e7	1.57e7
35	fry	DRSC10712	6.06e7	4.74e7		3.70e7	2.23e7
36	CG8851	DRSC00718	3.30e7	3.86e7		1.64e7	1.85e7
37	CSN6	DRSC16593	2.24e7	2.38e7		1.25e7	1.30e7
38	BomS3	DRSC21458	2.36e7	2.59e7		1.34e7	1.19e7
39	CG2901	DRSC18239	1.73e7	1.85e7		8.40e6	9.35e6
40	CG34459	DRSC06973	3.18e7	3.84e7		1.39e7	1.91e7
